# Reference: PubChem BioAssay AID180 (DTP/NCI, 2004)
# The list is a part of this screen's results and no random one: it is rich in T/C values a quarter to a half above the control, in often repeated tests (any T/C) and in doses without a T/C. Other doses and runs of a compound stand elsewhere. T/C gives the treated animals as a percentage of the vehicle group. Schedule codes are those of the source, read here as Q, the interval in days (D) or hours (H), X, the number of doses. Some T/C values are followed by the survivors on the day toxicity was checked, most often the fifth; where none is given, no animal had died by that day. Some entries were tested several times; the values are given in rising order. Some doses have a count of surviving animals in place of a T/C: the source files T/C as zero there, which appears to mark a toxic dose or a test without result, not a measured value. Survivors were counted at the toxicity check, usually on the fifth day, unless a day is given; later deaths do not show.
# Tested on: BDF1 mice, Adenocarcinoma 755 s.c., tumor weight T/C
# Test: NCI In Vivo Anticancer Drug Screen. Data for tumor model Adenocarcinoma 755 (subcutaneous) in B6D2F1 (BDF1) mice
# Conditions: T/C endpoint: mean tumor weight, higher T/C = larger tumour; for T/C: evaluated on day 12
# Procedure, shortened: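 Transplantable tumor implanted; mice dosed with compound or vehicle; survival or tumor size recorded; ratio of treated to vehicle control reported.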
# [1] = dose: 136.0 mg/kg/injection, schedule: Q01DX011 (ip), vehicle: carboxymethylcellulose (CMC)
# [2] = dose: 240.0 mg/kg/injection, schedule: Q01DX011 (ip), vehicle: carboxymethylcellulose (CMC)
# [3] = dose: 31.0 mg/kg/injection, schedule: Q01DX011 (ip), vehicle: methylcellulose (MC)
# [4] = dose: 125.0 mg/kg/injection, schedule: Q01DX011 (ip), vehicle: methylcellulose (MC)
# [5] = dose: 500.0 mg/kg/injection, schedule: Q01DX011 (ip), vehicle: methylcellulose (MC)
# [6] = dose: 60.0 mg/kg/injection, schedule: Q01DX011 (ip), vehicle: carboxymethylcellulose (CMC)
# [7] = dose: 500.0 mg/kg/injection, schedule: Q01DX011 (sc), vehicle: steroid suspending solution
# [8] = dose: 200.0 mg/kg/injection, schedule: Q01DX011 (ip), vehicle: carboxymethylcellulose (CMC)
smiles,measurement,setting,value
CC(=O)[C@@]1(O)[C@H](C)C[C@H]2[C@@H]3C=C(C)C4=Cc5c(cnn5-c5ccccc5)C[C@]4(C)[C@H]3[C@@H](O)C[C@@]21C,survivor count,"dose: 0.5 mg/kg/injection, schedule: Q01DX011 (sc), vehicle: steroid suspending solution",1 of 6
same,survivor count,"dose: 1.0 mg/kg/injection, schedule: Q01DX011 (sc), vehicle: steroid suspending solution",6 of 10
Nc1ncnc2c1ncn2C1CCCCC1,T/C,"dose: 17.0 mg/kg/injection, schedule: Q01DX011 (ip), vehicle: carboxymethylcellulose (CMC)","60, 68 [9 of 10 alive], 78, 86 % of control [9 of 10 alive]"
same,T/C,"dose: 34.0 mg/kg/injection, schedule: Q01DX011 (ip), vehicle: carboxymethylcellulose (CMC)","79, 89, 95, 113 % of control"
same,T/C,"dose: 68.0 mg/kg/injection, schedule: Q01DX011 (ip), vehicle: carboxymethylcellulose (CMC)","66 [9 of 10 alive], 68, 69, 104 % of control"
same,T/C,[1],63 [7 of 10 alive] and 81 % of control [8 of 10 alive]
same,survivor count,[1],2 of 10 and 5 of 10
CCOCCNS(=O)(=O)c1ncnc2nc[nH]c12,survivor count,[2],0 of 10
COC(=O)C1=COC(C)C2CN3CCc4c([nH]c5cc(OC)ccc45)C3CC12 (stereo unspecified),survivor count,"dose: 175.0 mg/kg/injection, schedule: Q01DX011 (ip), vehicle: other",5 of 10
Nc1nc(=S)cc(Nc2cccc(Cl)c2)[nH]1,survivor count,[3],6 of 10
Cc1ccc(N=S=O)cc1,survivor count,"dose: 250.0 mg/kg/injection, schedule: Q01DX011 (ip), vehicle: saline",0 of 10
COc1ccc2c(c1)/C(=C/CCN(C)C)c1ccccc1S2,survivor count,"dose: 30.0 mg/kg/injection, schedule: Q01DX011 (ip), vehicle: methylcellulose (MC)",4 of 10
Nc1nc(O)c(Br)c(=O)[nH]1,survivor count,[4],2 of 10
O=c1[nH]c(=O)c2[nH]c(N=Nc3ccc(N(CCCl)CCCl)cc3)nc2[nH]1,survivor count,"dose: 200.0 mg/kg/injection, schedule: Q01DX011 (ip), vehicle: saline",2 of 10
CC(=O)OCC(=O)[C@@]1(O)CC[C@H]2[C@@H]3CCC4=CC(=O)C=C[C@]4(C)[C@@]3(F)[C@@H](O)C[C@@]21C,survivor count,"dose: 35.0 mg/kg/injection, schedule: Q01DX011 (sc), vehicle: steroid suspending solution",2 of 12
CS(=O)(=O)OCCCl,T/C,"dose: 20.13 mg/kg/injection, schedule: Q01DX011 (ip), vehicle: carboxymethylcellulose (CMC)",134 % of control
same,T/C,"dose: 28.72 mg/kg/injection, schedule: Q01DX011 (ip), vehicle: carboxymethylcellulose (CMC)",136 % of control [8 of 10 alive]
same,T/C,"dose: 80.5 mg/kg/injection, schedule: Q01DX011 (ip), vehicle: carboxymethylcellulose (CMC)",145 % of control
same,survivor count,"dose: 155.0 mg/kg/injection, schedule: Q01DX011 (ip), vehicle: carboxymethylcellulose (CMC)",6 of 10
same,survivor count,"dose: 161.0 mg/kg/injection, schedule: Q01DX011 (ip), vehicle: carboxymethylcellulose (CMC)",1 of 10 and 3 of 10
same,survivor count,"dose: 167.0 mg/kg/injection, schedule: Q01DX011 (ip), vehicle: carboxymethylcellulose (CMC)",5 of 10
Oc1ccc2ccccc2c1N=Nc1ccc(N=Nc2ccccc2)cc1,T/C,"dose: 50.0 mg/kg/injection, schedule: Q01DX011 (ip), vehicle: carboxymethylcellulose (CMC)",141 % of control
CCc1c(Cl)nc(N)nc1Nc1ccccc1Cl,T/C,[3],130 % of control [9 of 10 alive]
same,survivor count,"dose: 250.0 mg/kg/injection, schedule: Q01DX011 (ip), vehicle: methylcellulose (MC)",5 of 10
COc1cc(C=O)cc(O)c1O,survivor count,[5],4 of 10
C[C@]12CCC(=O)C=C1CC[C@@H]1[C@@H]2[C@@H](O)C[C@@]2(C)[C@H]1CC[C@]2(O)C(=O)COC(=O)CCC(=O)O,survivor count,"dose: 700.0 mg/kg/injection, schedule: Q01DX011 (sc), vehicle: steroid suspending solution",6 of 10
Clc1ccccc1CSc1ncnc2nc[nH]c12,survivor count,"dose: 500.0 mg/kg/injection, schedule: Q01DX011 (ip), vehicle: other",0 of 10
CC(C)CCS(=O)(=O)OCCCCOS(=O)(=O)CCC(C)C,survivor count,"dose: 600.0 mg/kg/injection, schedule: Q01DX011 (ip), vehicle: methylcellulose (MC)",4 of 10
same,survivor count,"dose: 800.0 mg/kg/injection, schedule: Q01DX011 (ip), vehicle: methylcellulose (MC)",6 of 10
CS(=O)(=O)OCCC(=O)N1CCN(C(=O)CCOS(C)(=O)=O)CC1,survivor count,"dose: 18.75 mg/kg/injection, schedule: Q01DX011 (ip), vehicle: methylcellulose (MC)",6 of 10
same,survivor count,"dose: 50.0 mg/kg/injection, schedule: Q01DX011 (ip), vehicle: methylcellulose (MC)",4 of 10
same,survivor count,"dose: 75.0 mg/kg/injection, schedule: Q01DX011 (ip), vehicle: methylcellulose (MC)",2 of 10
same,survivor count,"dose: 76.0 mg/kg/injection, schedule: Q01DX011 (ip), vehicle: methylcellulose (MC)",4 of 10
same,survivor count,"dose: 113.0 mg/kg/injection, schedule: Q01DX011 (ip), vehicle: methylcellulose (MC)",3 of 10
same,survivor count,"dose: 170.0 mg/kg/injection, schedule: Q01DX011 (ip), vehicle: methylcellulose (MC)",2 of 10
same,survivor count,"dose: 176.0 mg/kg/injection, schedule: Q01DX011 (ip), vehicle: methylcellulose (MC)",2 of 10
Cn1cnc2c(Cl)nc(C(F)(F)F)nc21,survivor count,[6],4 of 10
CCCCCN(CCCCC)CC(O)c1ccc(Cl)c2ccccc12 (stereo unspecified),survivor count,[6],5 of 10
same,survivor count,"dose: 120.0 mg/kg/injection, schedule: Q01DX011 (ip), vehicle: carboxymethylcellulose (CMC)",4 of 10
same,survivor count,[2],5 of 10
Cc1ccccc1N(C=O)c1ccccc1C,T/C,[4],127 % of control
CCC(=O)O[C@H]1CC[C@H]2[C@@H]3CCC4=CC(=O)CC[C@]4(C)[C@H]3CC[C@]12C,survivor count,"dose: 400.0 mg/kg/injection, schedule: Q01DX011 (sc), vehicle: steroid suspending solution",1 of 10
same,T/C,[7],"55, 71 [9 of 10 alive], 134 % of control"
same,survivor count,[7],1 of 10
same,survivor count,"dose: 666.66 mg/kg/injection, schedule: Q01DX011 (sc), vehicle: steroid suspending solution",2 of 10
CNc1nc(N)nc(Nc2ccc(I)cc2)c1N=O,T/C,[8],129 % of control [9 of 10 alive]
same,survivor count,"dose: 500.0 mg/kg/injection, schedule: Q01DX011 (ip), vehicle: carboxymethylcellulose (CMC)",1 of 10
CCCNc1ncnc2c1cnn2C1CCCCO1 (stereo unspecified),survivor count,"dose: 25.0 mg/kg/injection, schedule: Q01DX011 (ip), vehicle: methylcellulose (MC)",1 of 10
CC(=O)OCC(=O)[C@@]1(O)CC[C@H]2[C@@H]3CCC4=CC(=O)[C@H](C)C[C@]4(C)[C@H]3[C@@H](O)C[C@@]21C,survivor count,"dose: 200.0 mg/kg/injection, schedule: Q01DX011 (sc), vehicle: steroid suspending solution",3 of 10
O=S(=O)(O)c1cccnc1,T/C,"dose: 74.73 mg/kg/injection, schedule: Q01DX011 (ip), vehicle: carboxymethylcellulose (CMC)",142 [9 of 10 alive] and 144 % of control
same,survivor count,"dose: 298.9 mg/kg/injection, schedule: Q01DX011 (ip), vehicle: carboxymethylcellulose (CMC)",6 of 10
same,survivor count,[5],6 of 10
CCC1OCCN1C(C)C (stereo unspecified),survivor count,"dose: 100.0 mg/kg/injection, schedule: Q01DX011 (ip), vehicle: carboxymethylcellulose (CMC)",0 of 10
same,survivor count,[8],0 of 10
O=P1(N(CCF)CCF)NCCCO1 (stereo unspecified),survivor count,"dose: 30.0 mg/kg/injection, schedule: Q01DX011 (ip), vehicle: saline",4 of 10
CC1CC2(C)C(=CC1=O)CCC1C3CCC(C)(O)C3(C)CC(O)C12F (stereo unspecified),T/C,"dose: 10.0 mg/kg/injection, schedule: Q01DX011 (sc), vehicle: steroid suspending solution",143 % of control
